Laboratory results published in paper PMC4859800.
No constants are given. Whether binding was seen depends on the method and setting.

How the values were obtained:
Assay in all cases: two-hybrid; array-based Y2H matrix; preys in pACT2 (PJ69-4a) mated against 23 baits in pAS2-1 (PJ69-4α); growth on SD-Leu-Trp-His + 6 mM 3-AT greater than the negative control after 2 weeks
[1] = molecular target: T1, Nsr1 (Y2H bait, pAS2-1) (S. cerevisiae) (UniProt P27476)
T1 sequence: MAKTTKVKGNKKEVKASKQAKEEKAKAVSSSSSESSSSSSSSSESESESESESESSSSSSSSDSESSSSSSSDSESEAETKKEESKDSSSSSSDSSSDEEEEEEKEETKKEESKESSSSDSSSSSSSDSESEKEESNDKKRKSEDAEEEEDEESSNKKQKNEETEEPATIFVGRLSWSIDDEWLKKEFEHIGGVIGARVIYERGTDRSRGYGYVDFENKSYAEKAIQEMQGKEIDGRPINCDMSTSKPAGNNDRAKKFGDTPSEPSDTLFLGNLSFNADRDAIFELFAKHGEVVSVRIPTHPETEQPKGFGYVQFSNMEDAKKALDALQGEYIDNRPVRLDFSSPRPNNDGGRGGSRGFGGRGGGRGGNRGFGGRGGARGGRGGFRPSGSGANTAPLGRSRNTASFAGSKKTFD

[2] = molecular target: T2, Nop12 (Y2H bait, pAS2-1) (S. cerevisiae) (UniProt Q08208)
T2 sequence: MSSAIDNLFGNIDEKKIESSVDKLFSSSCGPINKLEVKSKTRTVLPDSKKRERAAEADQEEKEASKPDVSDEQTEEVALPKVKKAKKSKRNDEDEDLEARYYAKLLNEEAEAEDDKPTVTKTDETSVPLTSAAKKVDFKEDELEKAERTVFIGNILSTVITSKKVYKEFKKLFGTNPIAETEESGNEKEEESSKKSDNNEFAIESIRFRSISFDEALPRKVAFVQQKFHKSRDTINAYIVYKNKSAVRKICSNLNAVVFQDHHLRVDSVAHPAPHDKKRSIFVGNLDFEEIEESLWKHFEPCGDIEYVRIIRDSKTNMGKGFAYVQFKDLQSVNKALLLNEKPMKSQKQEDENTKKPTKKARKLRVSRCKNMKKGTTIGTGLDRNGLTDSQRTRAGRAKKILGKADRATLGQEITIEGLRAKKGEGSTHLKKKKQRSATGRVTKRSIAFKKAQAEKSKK

[3] = molecular target: T3, Tma16 (Y2H bait, pAS2-1) (S. cerevisiae) (UniProt Q08687)
T3 sequence: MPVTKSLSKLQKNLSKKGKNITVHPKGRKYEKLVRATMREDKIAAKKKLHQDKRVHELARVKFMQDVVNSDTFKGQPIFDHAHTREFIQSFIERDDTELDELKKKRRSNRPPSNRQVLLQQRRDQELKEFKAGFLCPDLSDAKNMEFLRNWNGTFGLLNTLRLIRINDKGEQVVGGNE

Measured: binding

B1: Nop4 RRM 1–2 (Y2H prey, pACT2) (domain or fragment, UniProt P37838 1-250)
chain: MEETIENVEVPSSNVSKQNDDGLDMKTLFVRSIPQDVTDEQLADFFSNFAPIKHAVVVKDTNKRSRGFGFVSFAVEDDTKEALAKARKTKFNGHILRVDIAKRRDRSKKTSEVVEKSTPESSEKITGQNNEDEDDADGEDSMLKGKPKLIIRNMPWSCRDPVKLKKIFGRYGTVVEATIPRKRDGKLCGFAFVTMKKISNCRIALENTKDLKIDGRKVAVDFAVQKNRWEDYKKAQPEMNDKDDNESGNE
no binding: all assays above
